Paper PMC12420274
Results are given in words; binding and its absence hold for the method and conditions named. In cells and extracts the contact can be indirect. Binding calls can cover weak binding; strength is not graded here.

Sequences of proteins named here, by UniProt entry; tags and fusion partners are left off. A change or cut given only in a name is not applied to a line headed by its entry. Residues count along the entry.
UniProt P24071, residues 22-287: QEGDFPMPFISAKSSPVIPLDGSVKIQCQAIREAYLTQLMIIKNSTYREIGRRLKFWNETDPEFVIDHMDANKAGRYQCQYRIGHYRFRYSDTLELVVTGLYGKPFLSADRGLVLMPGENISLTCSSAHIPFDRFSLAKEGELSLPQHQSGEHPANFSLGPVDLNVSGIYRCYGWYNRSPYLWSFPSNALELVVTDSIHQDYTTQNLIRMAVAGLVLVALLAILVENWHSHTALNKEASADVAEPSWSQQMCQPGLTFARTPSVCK
UniProt O60239: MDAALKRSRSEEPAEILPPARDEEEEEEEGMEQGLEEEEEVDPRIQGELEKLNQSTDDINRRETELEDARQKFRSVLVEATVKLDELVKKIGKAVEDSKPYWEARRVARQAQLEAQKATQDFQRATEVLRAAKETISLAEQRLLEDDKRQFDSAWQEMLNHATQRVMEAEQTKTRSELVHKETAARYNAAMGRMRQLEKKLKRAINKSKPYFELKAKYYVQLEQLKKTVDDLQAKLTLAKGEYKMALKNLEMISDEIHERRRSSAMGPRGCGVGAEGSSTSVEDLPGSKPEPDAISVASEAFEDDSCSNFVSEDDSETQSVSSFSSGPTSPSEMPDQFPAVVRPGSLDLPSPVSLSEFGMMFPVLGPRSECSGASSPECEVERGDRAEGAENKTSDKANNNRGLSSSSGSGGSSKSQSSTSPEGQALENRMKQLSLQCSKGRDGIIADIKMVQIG

Molecular target: FcαRI Ser^248, endogenous in human myeloid cells (human (endogenous in U937, THP-1, HL-60 and primary leukocytes)) (UniProt P24071)
Assay: co-IP + pull-down; lysates of U937 cells stably expressing His6-SabΔ31; FcαRI immunoprecipitated or His6-Sab pulled down on a nickel Sepharose column; immunoblot for Sab and FcαRI

binding: binds
Substance: His6-SabΔ31, dominant-negative Sab lacking 31 amino acid residues required for Btk binding (from UniProt O60239)
